Some results were stated once for a whole list of compounds, not compound by compound.
System: 4T1 lung metastases
Assay: Flow cytometry of lymphocytes from 4T1 lung metastases
Format: cell-based, Balb/c mice
Conditions: Day 36

B1: murine 16B5: murine anti-clusterin 16B5 antibody used in mouse studies; VL SEQ ID NO:7, VH SEQ ID NO:8 (antibody, V domains shown)
VH: EVQLQQSGAELVKPGASVRLSCTTSGFNIKDIYMHWVKQRPEQGLEWIGRIDPAYGNTKYDPKFQGKATITADTSSNTAYLQLSSLTSEDTAVYYCARRYDTAMDYWGQGTSVTVSS
VL: DIVMSQSPSSLAVSAGEKVTMSCKSSQSLLNSRTRKNYLAWYQQKPGQSPKLLIYWASTRESGVPDRFTGSGSGTDFTLTISSVQAEDLAVYYCKQSYNLWTFGGGTKLEFK
modifications: Murine 16B5 VH; Murine 16B5 VL
In the case of B1, the “cell viability of CD45+ cells” value is reported as 80-90%.

Reference: patent US20240317884A1, “METHOD FOR ALLOWING IMMUNE CELLS INFILTRATION IN TUMORS” (Alethia Biotherapeutics Inc., priority 2021, published 2024)
